Results as given in paper PMC10632401 (Nature Communications, 2023).
HELM strings list residues between dots; [ac] is acetyl, [am] amide, other brackets name non-standard units.

Experiment: general procedure: Fmoc solid-phase peptide synthesis; TentaGel S RAM (0.22 mmol/g); DIC/Oxyma
Conditions: whole synthesis; for final HPLC purity: 220 nm; for final HPLC purity / isolated yield: scale of the general procedure 5 µmol, TFA salt; for isolated mass: scale 5 µmol

Substance | final HPLC purity | isolated yield | other results
H-MCFCFKAGPKICRGLQRKKKKFKYQTSFTKTGFGFLTKPKSPAR-NH2 (cysteine pairing not given here) | 93% | 9% | isolated mass (14 x TFA salt): 2.98 mg
H-MCFCRYRFFYRRRIRFFKWGPYFYVWFGFPFGRKAFFLSVFRRRFC-NH2 (cysteine pairing not given here) | > 90% | 6% | isolated mass (13 x TFA salt): 2.24 mg
H-MCFFPRRKSKVKVKGGLCRLLFIFFKTTFCFKAKTKKEIKKGTGKKIVR-NH2 (cysteine pairing not given here) | ≥ 99% | 8% | isolated mass (17 x TFA salt): 2.99 mg
H-MGFGLWGLFHFKMNVPNLFKNGFIFLIIMIFTVWGLFFGKKKAYIEKFL-NH2 | 98% | 4% | isolated mass (8 x TFA salt): 1.44 mg
H-MKEKKFFFFCFKKRRGFYKRRFFCKTTCFTYCFYKPRGTKTMPYVFSE-NH2 (cysteine pairing not given here) | ≥ 89% | 8% | isolated mass (15 x TFA salt): 3.24 mg
H-MKWKVFKKIEKMGRNIRNGIVKAGPAIAVLGEAKAL-NH2 | 97% | 9% | isolated mass (10 x TFA salt): 2.29 mg
H-MRGRPPKRIRSVIIAQTTTATAKKIVIVLLLIFSSSKRRR-NH2 | > 85% | 1% | isolated mass (12 x TFA salt): 0.35 mg
H-MSTRSSSIRRLVEAVRTRFRAALRTVLFFALRTTKRRPRR-NH2 | 84% | 6% | isolated mass (14 x TFA salt): 2.01 mg
H-MWFDRKKFFWPGVCLFLLFFPKRFYKKGPEKVFSFRKKYKFARKCKCKL-NH2 (cysteine pairing not given here) | 86% | 9% | isolated mass (17 x TFA salt): 3.64 mg
H-MWLKMRKCCGCGFKYCLKCVQKKGRIFKTLGKAKMWPKWFFKIGGKC-NH2 (cysteine pairing not given here) | > 83% | 9% | isolated mass (15 x TFA salt): 3.49 mg
PEPTIDE1{M.A.I.R.I.I.G.R.L.A.R.V.R.A.R.V.V.A.R.V.R.S.R.L.L.A.D.D.P.P.E.D.L.L.R.V.A.R.R.R.K.G.R.R.W.L.F.L.S.[am]}$$$$V2.0 | > 97% | 15% | isolated mass (16 x TFA salt): 5.74 mg
PEPTIDE1{M.E.A.F.K.K.K.P.R.L.P.L.F.K.V.K.L.T.R.F.L.E.R.A.R.G.L.G.S.Y.R.I.F.E.F.F.K.K.F.G.V.K.K.F.V.S.S.L.R.[am]}$$$$V2.0 | ≥ 97% | 10% | isolated mass (16 x TFA salt): 3.69 mg
PEPTIDE1{M.G.I.G.K.F.Q.K.M.R.F.I.G.A.I.R.A.S.K.G.V.A.K.G.L.L.R.I.A.A.I.R.T.G.R.R.A.L.T.T.[am]}$$$$V2.0 | > 68% | 9% | isolated mass (11 x TFA salt): 2.50 mg
PEPTIDE1{M.G.W.W.F.P.P.K.T.G.N.G.A.G.K.A.F.K.K.A.A.A.A.K.W.G.G.L.F.L.K.A.A.W.F.A.N.K.G.E.W.G.G.G.F.P.K.G.Y.[am]}$$$$V2.0 | 75% | 17% | isolated mass (9 x TFA salt): 5.27 mg
PEPTIDE1{M.K.A.K.K.W.F.E.S.L.F.K.T.F.F.K.K.G.K.G.I.Y.P.K.S.S.F.E.K.E.K.K.T.D.K.K.K.K.F.G.G.W.V.W.F.K.K.[am]}$$$$V2.0 | ≥ 99% | 8% | isolated mass (18 x TFA salt): 2.94 mg
PEPTIDE1{M.K.K.K.K.K.G.I.L.K.Q.N.N.K.K.K.K.Y.T.L.F.N.R.M.V.V.F.L.F.L.G.F.I.M.I.I.F.V.Q.K.Y.K.K.V.I.Y.H.K.[am]}$$$$V2.0 | ≥ 99% | 12% | isolated mass (17 x TFA salt): 4.80 mg
PEPTIDE1{M.K.K.L.F.K.K.I.L.K.Y.L.[am]}$$$$V2.0 | 97% | 36% | isolated mass (6 x TFA salt): 4.03 mg
PEPTIDE1{M.K.L.R.R.R.L.R.T.R.M.V.A.L.L.V.L.G.V.L.F.L.L.M.L.F.F.I.I.F.L.R.R.M.L.M.R.R.F.R.A.[am]}$$$$V2.0 | 96% | 13% | isolated mass (12 x TFA salt): 4.25 mg
PEPTIDE1{M.K.Q.P.S.K.T.K.T.H.F.K.Y.F.L.L.F.L.K.S.V.K.K.V.A.G.F.K.K.K.K.K.K.Y.H.W.R.S.Y.K.E.G.S.C.F.R.K.R.T.[am]}$$$$V2.0 | ≥ 99% | 6% | isolated mass (21 x TFA salt): 2.65 mg
PEPTIDE1{M.L.F.G.S.R.A.K.K.Y.G.K.E.A.K.Q.E.K.S.F.Q.Y.P.K.S.S.F.V.A.C.K.K.K.W.K.R.S.K.H.F.F.K.T.F.K.K.K.V.S.[am]}$$$$V2.0 | ≥ 99% | 23% | isolated mass (19 x TFA salt): 9.40 mg
PEPTIDE1{M.M.K.I.R.N.T.L.R.S.R.K.E.A.V.R.R.I.F.S.L.R.R.R.S.V.F.T.E.M.A.R.A.F.R.R.F.K.A.R.[am]}$$$$V2.0 | 90% | 13% | isolated mass (16 x TFA salt): 4.53 mg
PEPTIDE1{M.N.N.R.G.P.L.G.R.R.F.K.A.R.R.K.W.K.K.F.V.A.G.K.M.K.K.K.R.K.R.F.K.G.F.K.K.K.G.G.F.T.P.F.V.K.K.F.V.[am]}$$$$V2.0 | ≥ 99% | 22% | isolated mass (23 x TFA salt): 9.60 mg
PEPTIDE1{M.N.T.T.S.N.M.I.H.R.A.V.Q.Q.K.R.I.S.F.R.A.A.K.L.T.V.L.F.L.F.K.R.R.L.L.R.R.L.L.R.H.H.E.N.[am]}$$$$V2.0 | ≥ 99% | 11% | isolated mass (15 x TFA salt): 4.03 mg
PEPTIDE1{M.R.N.F.F.K.K.T.R.L.K.Y.K.G.K.K.E.L.I.K.K.S.R.A.F.G.L.K.T.K.K.R.S.G.F.F.F.P.R.A.L.K.Y.E.E.E.F.Y.[am]}$$$$V2.0 | ≥ 99% | 9% | isolated mass (18 x TFA salt): 3.49 mg
PEPTIDE1{M.R.R.K.T.P.V.K.W.K.T.F.F.K.A.L.K.H.K.K.K.I.F.K.K.T.F.E.K.F.K.F.L.A.K.G.P.A.F.L.K.G.F.D.Q.K.L.K.S.[am]}$$$$V2.0 | > 90% | 22% | isolated mass (20 x TFA salt): 9.27 mg
PEPTIDE1{M.W.I.K.W.K.K.P.R.K.W.G.R.R.L.K.K.K.E.K.E.E.L.G.D.Y.I.Y.L.Y.C.K.V.Y.R.L.F.G.F.L.P.Y.F.I.S.K.K.T.A.[am]}$$$$V2.0 | ≥ 99% | 7% | isolated mass (16 x TFA salt): 2.73 mg
PEPTIDE1{M.Y.L.K.K.F.L.A.L.K.N.S.L.K.K.L.S.P.F.K.C.A.V.K.S.W.L.K.K.C.A.E.V.T.F.Y.S.K.L.L.G.R.R.G.K.K.D.G.N.[am]}$$$$V2.0 | > 90% | 13% | isolated mass (15 x TFA salt): 4.67 mg
